Step yield and isolated yield data for 13 substances are collected here from patent US3978035A (Max-Planck-Gesellschaft zur Forderung der Wissenschaften …, priority 1973, dated 1976).

A short description of this data set: general procedure: solution-phase peptide synthesis; N,N'-dicyclohexylcarbodiimide/N-hydroxysuccinimide (also 1-hydroxybenzotriazole). The note with it: for isolated yield: whole synthesis.

The star is where a group is joined. Cbz = O=C(OCc1ccccc1)*; Boc = CC(C)(C)OC(=O)*; OtBu = CC(C)(C)O*

Under “late stage modification step”, “H-Arg (HBr)-Nle-Glu-(OtBu)-Glu-Gln-OtBu (OtBu)-Lys (BOC)-Glu (OtBu)-Arg (HBr)-Ash-Lys-(BOC)-Gly-Gln-OtBu” came in with a step yield of 95%.
“Z-Arg-(δ,ω-Z2)-Asn-Lys-(BOC)-Gly-Gln-OtBu”: where the note is “coupling step”, the step yield amounted to 80%. The substance further came in with an isolated yield (all stages on basis of H-Gln-OtBu (22b)) of 55%.
On to “N-benzyloxycarbonyl-nonapeptide-tert.-butyl ester”, for which the step yield (coupling step) is given as 84%.
Substance “H-Glu (OtBu)-Glu (OtBu)-Lys-(BOC)-Glu (OtBu)-Arg (HBr)-Asn-Lys (BOC)-Gly-Gln-OtBu” showed a step yield (late stage modification step) of 96%.
“BOC-Phe-Val-Pro-Ile-Phe-Thr (tBU)-Tyr (tBu)-Gly-OH” showed a step yield (coupling step) of 87%.
Regarding “H-Glu (OtBu)-Leu-Gln-Arg (HBr)-Nle-Glu (OtBu)-Glu-(OtBu)-Lys (BOC)-Glu (OtBu)-Arg (HBr)-Asn-Lys (BOC)-Gly-Gln-OtBu”, the step yield is, setting by setting: (coupling step, both stages) 77%; (late stage modification step) 94%.
Take “H-Arg-(HBr)-Asn-Lys-(BOC)-Gly-Gln-OtBu.HBr”: the step yield (late stage modification step) stood at 98%.
For the setting “coupling step”, Cbz-NK(Boc)GQ-OtBu displayed a step yield of 78%.
For the substance “Z-Arg (δ,ω-Z2)-Nle-Glu (OtBu)-Glu (OtBu)-Lys-(BOC)-Glu (OtBu)-Arg (HBr)-Asn-Lys (BOC)-Gly-Gln-OtBu”, the step yield is 85% (coupling step) and “about 69%” (coupling step, all three stages on basis of fragment I).
Under “late stage modification step”, “L-asparaginyl-Nε-tert.butyloxycarbonyl-L-lysyl-glycyl-L-glutamine- tert.butyl ester hydrochloride” displayed a step yield of 97%.
As for “tert.butyloxycarbonyl-L-phenylalanyl-L-valyl-L-prolyl-L-isoleucyl-L-phenylalanine-N-hydroxysuccinimide ester”, the step yield (late stage modification step) worked out at 88%.
On to Cbz-E(OtBu)E(OtBu)K(Boc)E(OtBu)-OH, for which the isolated yield (all stages on basis of H-Glu(OtBu)-OMe (17)) stood at 48%.
On to Boc-FVPIF-OH, for which the isolated yield (last three stages on basis of (4-5b)) worked out at 63%.
